Data: publication PMC5767004, “Inhibitors of the integrase–transportin-SR2 interaction block HIV nuclear import” (Retrovirology, 2018)
No constants are given. Whether binding was seen depends on the method and setting. Some binding calls cover weakened binding; strength is not graded here. Where a sequence is shown, tags or fusion partners need not be part of it.

The chains behind the UniProt entries cited, without tags or fusion partners.
UniProt O75475: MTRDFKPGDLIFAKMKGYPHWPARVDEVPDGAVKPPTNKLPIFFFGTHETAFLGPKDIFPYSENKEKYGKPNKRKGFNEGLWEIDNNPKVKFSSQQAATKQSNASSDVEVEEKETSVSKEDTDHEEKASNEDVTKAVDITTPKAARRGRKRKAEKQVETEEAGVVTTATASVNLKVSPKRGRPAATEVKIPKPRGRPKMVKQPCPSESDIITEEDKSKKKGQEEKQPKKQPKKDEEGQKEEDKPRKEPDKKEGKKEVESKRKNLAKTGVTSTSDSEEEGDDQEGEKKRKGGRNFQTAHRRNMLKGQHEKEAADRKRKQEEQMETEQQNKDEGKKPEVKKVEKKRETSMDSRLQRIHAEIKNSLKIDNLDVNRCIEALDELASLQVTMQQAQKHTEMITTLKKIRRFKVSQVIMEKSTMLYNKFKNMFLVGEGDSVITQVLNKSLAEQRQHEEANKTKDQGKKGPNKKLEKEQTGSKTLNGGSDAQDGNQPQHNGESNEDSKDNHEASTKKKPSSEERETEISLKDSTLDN

Target: full-length 3xflag-tagged LEDGF/p75 (UniProt O75475)
Assay: AlphaScreen or HTRF; AlphaScreen; MBP-tagged JPO2 and 3xflag-tagged LEDGF/p75 at 5 nM each; anti-flag acceptor beads and streptavidin donor beads coated with anti-MBP antibody; both purified

B1: maltose-binding protein (MBP)-tagged JPO2 (Cell division cycle-associated 7-like protein, CDCA7L) (protein, UniProt Q96GN5 1-454)
chain: MELATRYQIPKEVADIFNAPSDDEEFVGFRDDVPMETLSSEESCDSFDSLESGKQQDVRFHSKYFTEELRRIFIEDTDSETEDFAGFTQSDLNGKTNPEVMVVESDLSDDGKASLVSEEEEDEEEDKATPRRSRSRRSSIGLRVAFQFPTKKLANKPDKNSSSEQLFSSARLQNEKKTILERKKDCRQVIQREDSTSESEDDSRDESQESSDALLKRTMNIKENKAMLAQLLAELNSMPDFFPVRTPTSASRKKTVRRAFSEGQITRRMNPTRSARPPEKFALENFTVSAAKFAEEFYSFRRRKTIGGKCREYRRRHRISSFRPVEDITEEDLENVAITVRDKIYDKVLGNTCHQCRQKTIDTKTVCRNQGCCGVRGQFCGPCLRNRYGEDVRSALLDPDWVCPPCRGICNCSYCRKRDGRCATGILIHLAKFYGYDNVKEYLESLQKELVEDN
In the case of B1, the binding is reported as “binds”.
